Experiment [1] concerns Staphylococcus aureus. The experiment can be described thus: Antibacterial activity against methicillin-sensitive Staphylococcus aureus ATCC 25923 at 10 ug/ml after 24 hrs by disc diffusion method. In kind it is functional, organism-based.
In experiment [2] the test system is Staphylococcus aureus. The experiment can be described thus: Antibacterial activity against methicillin-resistant Staphylococcus aureus ATCC 43300 at 10 ug/ml after 24 hrs by disc diffusion method. It is filed as functional, organism-based. Background: Agar diffusion results depend on both activity and mobility in agar.

GENTAMICIN: the inhibition zone (IZ) in experiment [1] came to 27 mm; in experiment [2] it was 23 mm.

(Values after ChEMBL document CHEMBL2046424, “Synthesis and anti Methicillin resistant Staphylococcus aureus activity of substituted chalcones alone and in combination with non-beta-lactam antibiotics” (2012).)
